# Data from the supplement of paper PMC11409438.
# Where a name gives a salt, the structure may show the parent alone. The list shows a part of the results. Many values rest on one well or one pass, so single values are uncertain.
# Experiments:
# [1] = system: Caenorhabditis elegans ST65 (ncIs13[ajm-1::GFP]); assay: 'Larvae/adult' ratio (MetaXpress pharynx counts; minimum value 1, so it appears to include adults; growth inhibition read-out); details: 10 µM; exposure time: 4-5 days from L1 at 20°C
# [2] = system: Caenorhabditis elegans ST65 (ncIs13[ajm-1::GFP]); assay: vulvae per adult worm (MAPK/ERK-dependent vulval induction, MetaXpress) (vulvae/adult); higher = more vulval induction (less MAPK/ERK inhibition); details: 10 µM; exposure time: 4-5 days from L1 at 20°C
smiles,measurement,setting,value
Nc1ncn([C@H]2C[C@H](O)[C@@H](CO)O2)c(=O)n1 [Decitabine],'Larvae/adult' ratio,[1],2.06
same,vulvae per adult worm,[2],0.848
CCN(CC)Cc1ccc2cc(COC(=O)Nc3ccc(C(=O)NO)cc3)ccc2c1 [Givinostat (ITF2357)],'Larvae/adult' ratio,[1],1.74
same,vulvae per adult worm,[2],1
CC(C)(C)C[C@@H]1N[C@@H](C(=O)N[C@H]2CC[C@H](O)CC2)[C@H](c2cccc(Cl)c2F)[C@]12C(=O)Nc1cc(Cl)ccc12,'Larvae/adult' ratio,[1],1.5
same,vulvae per adult worm,[2],1.25
Cc1cc(C(C)Nc2ccccc2)c2nc(N3CCOCC3)cc(=O)n2c1 (centres undefined),'Larvae/adult' ratio,[1],1.81
same,vulvae per adult worm,[2],0.511
O=C(O)C1(C(=O)O)CCC1.[NH2-].[NH2-].[Pt+2] [Carboplatin],'Larvae/adult' ratio,[1],1.77
same,vulvae per adult worm,[2],0.857
COc1ccc(-c2nc(N3CCOCC3)c3sc(CN(C)c4ncc(C(=O)NO)cn4)cc3n2)cn1,'Larvae/adult' ratio,[1],2.58
same,vulvae per adult worm,[2],0.75
CNC(=O)c1ccc(C)c(-n2c(C)cc(OCc3ccc(F)cc3F)c(Br)c2=O)c1,'Larvae/adult' ratio,[1],2.51
same,vulvae per adult worm,[2],1.15
COc1cc(Nc2c(C#N)cnc3cc(OCCCN4CCN(C)CC4)c(OC)cc23)c(Cl)cc1Cl [Bosutinib (SKI-606)],'Larvae/adult' ratio,[1],2.45
same,vulvae per adult worm,[2],0.818
CC(C)(C)Cn1c(N)nc2ccc(-c3[nH]c(C(C)(C)C)nc3-c3ccc(F)cc3)nc21,'Larvae/adult' ratio,[1],1.69
same,vulvae per adult worm,[2],1.05
COc1cc(Nc2ncc3c(n2)-c2ccc(Cl)cc2C(c2c(F)cccc2OC)=NC3)ccc1C(=O)O [Alisertib (MLN8237)],'Larvae/adult' ratio,[1],1.33
same,vulvae per adult worm,[2],0.667
CN[C@@H](C)C(=O)N[C@H]1CN(C(=O)CC(C)C)CC[C@H]2CC[C@@H](C(=O)NC(c3ccccc3)c3ccccc3)N2C1=O,'Larvae/adult' ratio,[1],1.87
same,vulvae per adult worm,[2],0.711
CCc1nc(C(N)=O)c(Nc2ccc(N3CCC(N4CCN(C)CC4)CC3)c(OC)c2)nc1NC1CCOCC1 [Gilteritinib (ASP2215)],'Larvae/adult' ratio,[1],2.17
same,vulvae per adult worm,[2],0.966
c1cn2cc(-c3ccc4cn[nH]c4c3)nc(Nc3ccc(N4CCOCC4)cc3)c2n1 [Entospletinib (GS-9973)],'Larvae/adult' ratio,[1],8.5
same,vulvae per adult worm,[2],1
Cc1cc(-c2ncc(CC(=O)Nc3ccc(-c4cnccn4)cn3)cc2C)ccn1,'Larvae/adult' ratio,[1],2.7
same,vulvae per adult worm,[2],0.95
CCOC(=O)CCNc1cc(N2CCc3ccccc3CC2)nc(-c2ccccn2)n1,'Larvae/adult' ratio,[1],2.95
same,vulvae per adult worm,[2],0.286
"O=C(c1ccc(F)c(F)c1Nc1ccc(I)cc1F)N1CC(O)([C@@H]2CCCCN2)C1 [Cobimetinib (GDC-0973, RG7420)]",'Larvae/adult' ratio,[1],2.94
same,vulvae per adult worm,[2],0.943
CC[C@@H]1C(=O)N(C)c2cnc(Nc3ccc(C(=O)N[C@H]4CC[C@H](N5CCN(CC6CC6)CC5)CC4)cc3OC)nc2N1C(C)C [Volasertib (BI 6727)],'Larvae/adult' ratio,[1],2.32
same,vulvae per adult worm,[2],0.894
O=c1ncn2nc(Sc3ccc(F)cc3F)ccc2c1-c1c(Cl)cccc1Cl,'Larvae/adult' ratio,[1],2.03
same,vulvae per adult worm,[2],0.645
Cc1ccc(C(=O)Nc2cccc(C(F)(F)F)c2)cc1Nc1nc(-c2cccnc2)nc2c1cnn2C,'Larvae/adult' ratio,[1],1.77
same,vulvae per adult worm,[2],1
O=C(Nc1cc(Cl)cc2c1[nH]c1cnccc12)c1cccnc1,'Larvae/adult' ratio,[1],1.94
same,vulvae per adult worm,[2],0.613
COc1cc(OC)c(/C=C/S(=O)(=O)Cc2ccc(OC)c(NCC(=O)O)c2)c(OC)c1,'Larvae/adult' ratio,[1],1.56
same,vulvae per adult worm,[2],0.926
"O=c1[nH]cc(F)c(=O)[nH]1 [Fluorouracil (5-Fluoracil, 5-FU)]",'Larvae/adult' ratio,[1],1.73
same,vulvae per adult worm,[2],1.23
CCc1cc2c(cc1N1CCC(N3CCOCC3)CC1)C(C)(C)c1[nH]c3cc(C#N)ccc3c1C2=O,'Larvae/adult' ratio,[1],1.94
same,vulvae per adult worm,[2],0.824
COC(=O)c1ccc2c(c1)[nH]c1ncnc(NCCCN3CCCCC3)c12,'Larvae/adult' ratio,[1],2.17
same,vulvae per adult worm,[2],0.833
O=C(c1ccc(OCCN2CCCCC2)cc1)c1c(-c2ccc(O)cc2)sc2cc(O)ccc12 [Raloxifene HCl],'Larvae/adult' ratio,[1],4.06
same,vulvae per adult worm,[2],0.778
CCc1c2c(nc3ccc(O)cc13)-c1cc3c(c(=O)n1C2)COC(=O)[C@]3(O)CC,'Larvae/adult' ratio,[1],1.23
same,vulvae per adult worm,[2],1.08
C=CC(=O)N1CC/C(=C\c2ccc(F)c([N+](=O)[O-])c2)C(=O)/C(=C/c2ccc(F)c([N+](=O)[O-])c2)C1,'Larvae/adult' ratio,[1],1.5
same,vulvae per adult worm,[2],0.75
S=c1[nH]cnc2nc[nH]c12 [Mercaptopurine (6-MP)],'Larvae/adult' ratio,[1],1.57
same,vulvae per adult worm,[2],0.776
"CO[C@H]1C[C@@H]2CC[C@@H](C)[C@@](O)(O2)C(=O)C(=O)N2CCCC[C@H]2C(=O)O[C@H]([C@H](C)C[C@@H]2CC[C@@H](OP(C)(C)=O)[C@H](OC)C2)CC(=O)[C@H](C)/C=C(\C)[C@@H](O)[C@@H](OC)C(=O)[C@H](C)C[C@H](C)/C=C/C=C/C=C/1C [Ridaforolimus (Deforolimus, MK-8669)]",'Larvae/adult' ratio,[1],2.83
same,vulvae per adult worm,[2],1.02
N#Cc1ccc(C(c2ccc(C#N)cc2)n2cncn2)cc1 [Letrozole],'Larvae/adult' ratio,[1],2.43
same,vulvae per adult worm,[2],1.61
COc1cc2nccc(Oc3ccc(NC(=O)Nc4cc(C)on4)c(Cl)c3)c2cc1OC [Tivozanib (AV-951)],'Larvae/adult' ratio,[1],1.97
same,vulvae per adult worm,[2],0.759
CC(=O)O[C@]1(C(C)=O)CC[C@H]2[C@@H]3C=C(C)C4=CC(=O)CC[C@]4(C)[C@H]3CC[C@@]21C [Megestrol Acetate],'Larvae/adult' ratio,[1],2.68
same,vulvae per adult worm,[2],0.92

# Exported with tabs: entries from further up
smiles	measurement	setting	value
Nc1ncn([C@H]2C[C@H](O)[C@@H](CO)O2)c(=O)n1 [Decitabine]	'Larvae/adult' ratio	[1]	2.06
CC(C)(C)C[C@@H]1N[C@@H](C(=O)N[C@H]2CC[C@H](O)CC2)[C@H](c2cccc(Cl)c2F)[C@]12C(=O)Nc1cc(Cl)ccc12	vulvae per adult worm	[2]	1.25
COc1cc(Nc2ncc3c(n2)-c2ccc(Cl)cc2C(c2c(F)cccc2OC)=NC3)ccc1C(=O)O [Alisertib (MLN8237)]	'Larvae/adult' ratio	[1]	1.33
c1cn2cc(-c3ccc4cn[nH]c4c3)nc(Nc3ccc(N4CCOCC4)cc3)c2n1 [Entospletinib (GS-9973)]	'Larvae/adult' ratio	[1]	8.5
CO[C@H]1C[C@@H]2CC[C@@H](C)[C@@](O)(O2)C(=O)C(=O)N2CCCC[C@H]2C(=O)O[C@H]([C@H](C)C[C@@H]2CC[C@@H](OP(C)(C)=O)[C@H](OC)C2)CC(=O)[C@H](C)/C=C(\C)[C@@H](O)[C@@H](OC)C(=O)[C@H](C)C[C@H](C)/C=C/C=C/C=C/1C [Ridaforolimus (Deforolimus, MK-8669)]	'Larvae/adult' ratio	[1]	2.83
